Data published in publication PMC6700787, “Sharpin suppresses β1-integrin activation by complexing with the β1 tail and kindlin-1” (Cell Communication and Signaling : CCS, 2019).
Results are given in words; binding and its absence hold for the method and conditions named. Binding calls can cover weak binding; strength is not graded here. Tags and fused reporters may be left off the sequences shown. Values belong to the molecule of their own block, whether it stands above or below them.

Protein sequences, listed by entry. Tags and fused reporters are not part of them. Lines headed by an entry give the natural chain unless they say otherwise; changes in a name come on top.
UniProt Q9BQL6: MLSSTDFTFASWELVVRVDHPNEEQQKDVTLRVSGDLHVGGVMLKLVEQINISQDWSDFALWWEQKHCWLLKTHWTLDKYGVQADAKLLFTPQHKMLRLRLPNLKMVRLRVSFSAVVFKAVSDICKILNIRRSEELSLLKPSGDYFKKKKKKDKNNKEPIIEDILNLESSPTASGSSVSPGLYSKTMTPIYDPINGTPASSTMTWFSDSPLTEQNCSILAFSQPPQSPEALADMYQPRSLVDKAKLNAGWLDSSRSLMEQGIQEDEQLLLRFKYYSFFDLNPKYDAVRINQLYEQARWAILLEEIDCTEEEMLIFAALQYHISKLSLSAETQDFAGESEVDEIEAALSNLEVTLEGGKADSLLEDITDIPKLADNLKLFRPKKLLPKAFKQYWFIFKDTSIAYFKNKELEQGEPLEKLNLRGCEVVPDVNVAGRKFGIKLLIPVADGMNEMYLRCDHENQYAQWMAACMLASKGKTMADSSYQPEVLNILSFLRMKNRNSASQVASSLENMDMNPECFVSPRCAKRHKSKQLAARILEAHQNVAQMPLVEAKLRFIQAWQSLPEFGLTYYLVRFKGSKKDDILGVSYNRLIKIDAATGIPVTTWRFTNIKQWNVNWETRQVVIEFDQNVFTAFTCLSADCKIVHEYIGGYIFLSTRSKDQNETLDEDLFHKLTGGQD

What was measured:
GST-fused sharpin = target: T1, GST-fused sharpin (UniProt Q9H0F6); test: pull-down; GST-SH on Glutathione Sepharose beads, incubated with his-tagged kindlins or kindlin-1 mutants; immunoblotting (Fig. 3b, 3e); both purified
T1 sequence: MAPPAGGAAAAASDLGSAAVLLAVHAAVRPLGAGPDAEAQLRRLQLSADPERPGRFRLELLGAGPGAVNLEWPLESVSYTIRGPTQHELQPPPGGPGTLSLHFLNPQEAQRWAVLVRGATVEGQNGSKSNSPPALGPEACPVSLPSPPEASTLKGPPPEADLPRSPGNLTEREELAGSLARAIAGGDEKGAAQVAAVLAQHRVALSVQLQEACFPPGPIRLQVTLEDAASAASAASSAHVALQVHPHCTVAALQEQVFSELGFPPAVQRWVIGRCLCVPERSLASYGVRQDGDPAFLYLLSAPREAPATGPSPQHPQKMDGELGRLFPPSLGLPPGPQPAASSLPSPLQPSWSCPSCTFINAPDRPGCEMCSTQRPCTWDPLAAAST

[1] = target: kindlin-1 QW/AA mutant, fused with the DNA-binding domain of GAL4 (pGBKT7) (UniProt Q9BQL6); test: two-hybrid; Matchmaker Gold yeast two-hybrid; AD-sharpin (pGADT7) with BD-kindlin (pGBKT7); growth on SD-4 selection media, serial dilution (Fig. 3a, 3f)
[2] = target: kindlin-1 missing the F1 subdomain, fused with the DNA-binding domain of GAL4 (pGBKT7); test: as above

binding (GST-fused sharpin): binds
Molecule: N-terminal fragment (F0 + F1) of kindlin-1, his-tagged (domain or fragment)

binding [1]: binds
binding [2]: binds
B1: AD-sharpin (sharpin fused with the activation domain of GAL4, pGADT7) (protein, UniProt Q9H0F6 1-387)
chain: T1 sequence

Continued, molecule first:

Molecule: kindlin-1 missing the F1 subdomain, his-tagged (domain or fragment)
binding (GST-fused sharpin): binds

Molecule: kindlin-1 with a deletion of the F0 subdomain, his-tagged (domain or fragment)
binding (GST-fused sharpin): no binding
